This test concerns HEK293A TEAD-LUC reporter. In words: TEAD-luciferase reporter activity (YAP activation), robust Z score vs plate; higher = stronger YAP/TEAD activation. The settings on record: 24 h.

Structures can show the parent of a compound that is named as a salt. The list shows a part of the results. This data set is noisy: repeats of one test often differ as much as different tests do.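 In a drug-repurposing library screen, luminescence reads luciferase driven by eight TEAD-binding elements, stably integrated into human kidney-derived cells. Compounds scoring over five robust Z scores above the plate mean are called hits.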

`Cn1cc(-c2nc(N[C@@H]3CCCC[C@@H]3N)c(F)c3c2C(=O)NC3)cn1`: the TEAD-luciferase reporter activity by setting is: (compound concentration: 200 nM) inactive: 0.961; (compound concentration: 2 uM) inactive: 0.589; (compound concentration: 10 uM) inactive: 3.54.
On to `CCOC(=O)c1cccc(COc2ccc(N3C(N)=NC(N)=NC3(C)C)cc2Cl)c1`, for which the TEAD-luciferase reporter activity is, setting by setting: (compound concentration: 200 nM) inactive: -1.86; (compound concentration: 2 uM) inactive: -0.286; (compound concentration: 10 uM) inactive: -0.203.
For `FC(F)c1nc2ccccc2n1-c1nc(N2CCOCC2)nc(N2CCOCC2)n1`, in that order: inactive: -1.81, inactive: -2.16 and inactive: -0.686.
`CCc1nc(CC)nc(NS(=O)(=O)c2ccc(N)cc2)n1`: the TEAD-luciferase reporter activity by setting is: (compound concentration: 200 nM) inactive: -0.271; (compound concentration: 2 uM) inactive: -1.58; (compound concentration: 10 uM) inactive: -1.06.
Turning to `OC[C@H]1O[C@@H](Oc2cc(O)cc(/C=C/c3ccc(O)cc3)c2)[C@H](O)[C@@H](O)[C@@H]1O` [Polydatin], the TEAD-luciferase reporter activity (compound concentration: 2 uM) was inactive: 2.02.
Turning to `OC[C@H]1O[C@@H](Oc2cc(O)cc(/C=C/c3ccc(O)cc3)c2)[C@H](O)[C@@H](O)[C@@H]1O`, the TEAD-luciferase reporter activity is inactive: -0.771 (compound concentration: 200 nM) and inactive: -1.57 (compound concentration: 10 uM).
Regarding `CCOCCn1nc(C(=O)OC)c2nc(N(C)CC)nc(Nc3cc(C)ccn3)c21`, the TEAD-luciferase reporter activity reads like this: (compound concentration: 200 nM) inactive: -0.736; (compound concentration: 2 uM) inactive: -1.01; (compound concentration: 10 uM) inactive: -0.985.
On to `COc1cccc2c1ccc1nc3cccc(C(=O)N[C@H](C)CN(C)C)c3nc12`, for which the TEAD-luciferase reporter activity is, setting by setting: (compound concentration: 200 nM) inactive: 0.419; (compound concentration: 2 uM) active: 6.84; (compound concentration: 10 uM) inactive: 1.42.
As to `Cc1nn(-c2cnc(OCC(C)C)c(Cl)c2)c2ccc(C(=O)NS(C)(=O)=O)cc12`, the TEAD-luciferase reporter activity runs as follows: (compound concentration: 200 nM) inactive: -1.37; (compound concentration: 10 uM) inactive: 0.23.
With `CC(C1C(=O)Oc2ccccc2C1=O)C1C(=O)Oc2ccccc2C1=O` (configuration not stated), the TEAD-luciferase reporter activity was inactive: -1.71 (compound concentration: 200 nM), inactive: 4.55 (compound concentration: 2 uM) and inactive: 0.418 (compound concentration: 10 uM).
`CC(=O)[C@H]1CC[C@H]2[C@@H]3CCC4=CC(=O)CC[C@]4(C)[C@H]3[C@H](O)C[C@]12C` [Stetaderm]: where the note is “compound concentration: 2 uM”, the TEAD-luciferase reporter activity was inactive: -1.28.
Take `CC(=O)[C@H]1CC[C@H]2[C@@H]3CCC4=CC(=O)CC[C@]4(C)[C@H]3[C@H](O)C[C@]12C` [stetaderm]: the TEAD-luciferase reporter activity is, setting by setting: (compound concentration: 200 nM) active: 6.52; (compound concentration: 10 uM) inactive: 0.342.
For `Nc1nc(N)c2nc(CNc3ccc(C(=O)NC(CCC(=O)O)C(=O)O)cc3)cnc2n1` (configuration not stated) [aminopterin, Syntrix], in that order: inactive: -0.202 and inactive: -0.429.
As to `Nc1nc(N)c2nc(CNc3ccc(C(=O)NC(CCC(=O)O)C(=O)O)cc3)cnc2n1` (configuration not stated) [aminopterin], the TEAD-luciferase reporter activity (compound concentration: 2 uM) was inactive: -0.775.
As for `O=C1NC(=O)C(Cc2ccc3oc(Cc4ccc5ccccc5c4)nc3c2)S1` (configuration not stated), the TEAD-luciferase reporter activity (compound concentration: 200 nM) is inactive: -1.88, the TEAD-luciferase reporter activity (compound concentration: 2 uM) was inactive: -0.0223 and the TEAD-luciferase reporter activity (compound concentration: 10 uM) was inactive: -1.37.
Regarding `O=C1NCc2ccccc2CC12CCCN2CC1CCCCC1` (configuration not stated), the TEAD-luciferase reporter activity (compound concentration: 200 nM) was inactive: 2.27 and the TEAD-luciferase reporter activity (compound concentration: 10 uM) is inactive: 1.41.
`COc1cc(Nc2nc3ccccc3nc2NS(=O)(=O)c2cccc(NC(=O)c3ccc(C)c(OC)c3)c2)cc(OC)c1` [analog of pilaralisib]: the TEAD-luciferase reporter activity reads like this: (compound concentration: 200 nM) inactive: -1.14; (compound concentration: 2 uM) inactive: 1.01; (compound concentration: 10 uM) inactive: 0.395.
For `O=c1cc(OCc2ccccc2)ccn1-c1ccc2c(cnn2CCN2CCCC2)c1`, in that order: inactive: 0.122, inactive: 0.685 and inactive: -0.139.
Regarding `CC/C=C\C/C=C\C/C=C\C/C=C\C/C=C\CCCC(=O)O` [DHA-metformin], the TEAD-luciferase reporter activity by setting is: (compound concentration: 200 nM) inactive: 3.84; (compound concentration: 2 uM) inactive: -1.84; (compound concentration: 10 uM) inactive: -1.38.
For `CC(C(=O)O)N(C)CCCC1(c2ccc(Cl)cc2)CCc2cc(Cl)ccc21` (configuration not stated), in that order: inactive: -1.4, inactive: -0.545 and inactive: 0.0704.
With `CC(C(=O)O)c1ccc(CC2CCCCC2=O)c(Cl)c1` (configuration not stated), the TEAD-luciferase reporter activity is inactive: -1.04 (compound concentration: 200 nM), inactive: -0.837 (compound concentration: 2 uM) and inactive: -0.467 (compound concentration: 10 uM).
On to `CCCCCNC(=N)N/N=C/c1c[nH]c2ccc(OC)cc12` [Tegaserod maleate], for which, for the setting “compound concentration: 2 uM”, the TEAD-luciferase reporter activity is inactive: -1.43.
With `CCCCCNC(=N)N/N=C/c1c[nH]c2ccc(OC)cc12`, the TEAD-luciferase reporter activity is, setting by setting: (compound concentration: 200 nM) active: 6.72; (compound concentration: 10 uM) inactive: 1.55.
For `Nc1nc(Cl)nc2c1ncn2C1OC(CO)C(O)C1F` (configuration not stated) [clofarabine], the TEAD-luciferase reporter activity is inactive: -1.62 (compound concentration: 200 nM), inactive: -3 (compound concentration: 2 uM) and inactive: 1.47 (compound concentration: 10 uM).
For `CN1CCN(C(=O)/C=C2/c3ccccc3NC(=O)c3ccccc32)CC1` [Darenzepine], in that order: inactive: -1.13, inactive: 4.9 and inactive: 4.35.
On the same counts, the results for `Cn1c(=O)c(Oc2ccc(F)cc2F)cc2cnc(NC3CCOCC3)nc21` [R1487 (Hydrochloride)] are inactive: -1.46, inactive: -2.09 and inactive: -2.07.
For `CC(=O)N[C@@H]1[C@@H](OC(C)C(=O)N[C@@H](C)C(=O)N[C@@H](CCC(=O)O)C(N)=O)[C@H](O)[C@@H](CO)O[C@@H]1O` (stereo partly drawn) [N-Acetylmuramyl-L-alanyl-L-isoglutamine], in that order: inactive: -0.209, inactive: -0.781 and inactive: -0.44.

(Values after the supplement of paper PMC10735217.)
